{"source": "patent US20180000725A1", "about": "“ORALLY-DISSOLVING FILMS FOR DRUG DELIVERY THROUGH THE ORAL CAVITY” (The Chinese University of Hong Kong, priority 2016, published 2018)", "key": {"[1]": {"details": "nifedipine, oral; cited from earlier work"}, "[2]": {"assay": "In vivo pharmacokinetic study of nifedipine / NIF-ODF"}, "[3]": {"details": "New Zealand Albino, rabbit, in vivo, po, 1 mg/kg"}}}
{"compound": "COC(=O)C1=C(C)NC(C)=C(C(=O)OC)C1c1ccccc1[N+](=O)[O-]", "note": "[nifedipine, Nifedipine]", "values": [{"measurement": "half-life time (t1/2)", "setting": "[1]", "value": "2 to 5", "unit": "h"}, {"measurement": "AUC(0-t)", "setting": "[2]; [3]", "value": 226, "unit": "ng·h/mL"}, {"measurement": "half-life", "setting": "[2]; [3]", "value": "11.4 ± 1.68", "unit": "h"}, {"measurement": "λz", "setting": "[2]; rabbits, nifedipine neat drug 1 mg/kg, oral gavage, n = 3", "value": "0.0011 ± 0.0002", "unit": "min⁻¹"}]}
